Source: doi:10.1101/2023.11.26.568767
These are yes or no findings as the source states them, for the method shown. For part of these data: A result given as binding can be weak or reduced; the word gives no strength.

B1: G protein γ subunit AGG3 (protein, UniProt Q6AWT8 1-251)
chain: MSAPSGGGEGGGKESAAGGVSSSSLAPSSLPPPRPKSPPEYPDLYGKRREAARVQMLEREIGFLEGEIKFIEGVQPASRCIKEVSDFVVANSDPLIPAQRKSRRSFRFWKWLCGPCLSLVSFCCCCQSKCSCHLRKPKCCNCTSCSCIGSKCCDGSCCSNICCCPRLSCPSCSCFRGCWCSCPDMSCCIPSCFRSCSCTRPSCLNKKKSSCCSCNCKIRWSSCFSCPKVRLCSCCFCNCKNLCSNPCCLAF
B2: G protein γ subunit AGG2 (protein, UniProt Q93V47 1-100)
chain: MEAGSSNSSGQLSGRVVDTRGKHRIQAELKRLEQEARFLEEELEQLEKMDNASASCKEFLDSVDSKPDPLLPETTGPVNATWDQWFEGPKEAKRCGCSIL
B3: G protein γ subunit AGG1 (protein, UniProt Q9FDX9 1-98)
chain: MREETVVYEQEESVSHGGGKHRILAELARVEQEVAFLEKELKEVENTDIVSTVCEELLSVIEKGPDPLLPLTNGPLNLGWDRWFEGPNGGEGCRCLIL

Molecular target: GTP BINDING PROTEIN BETA 1 (AGB1), splice isoform AGB1.4 (Arabidopsis thaliana)
Test: two-hybrid

binding | Binder
binds | B1
binds weakly | B2
binds | B3

Molecular target: GTP BINDING PROTEIN BETA 1 (AGB1), splice isoform AGB1.3 (Arabidopsis thaliana)
Test: two-hybrid

binding | Binder
no binding | B1
no binding | B2
no binding | B3
